For part of these data: Expression values are those of the mRNA of the gene that encodes the peptide; a gene is named only where it was looked up.
Columns and labels:
Parameters in all cases: species or system human
[1] = test system: source genes of the peptides (mRNA) in tumor and normal tissue; test: Expression profiling of source genes by RNAseq (target coverage); details: share of tumors with more than 1.5-fold over-expression vs highest-expressing relevant normal tissue; for Target coverage for source genes, AML (%): acute myeloid leukemia; for Target coverage for source genes, BRCA (%): breast cancer; for Target coverage for source genes, CLL (%): chronic leukemia (CLL); for Target coverage for source genes, OSCAR (%): esophageal cancer incl. gastric-oesophageal junction; for Target coverage for source genes, GBC_CCC (%): gallbladder adenocarcinoma and cholangiocarcinoma; for Target coverage for source genes, MEL (%): melanoma; for Target coverage for source genes, NHL (%): non-Hodgkin lymphoma; for Target coverage for source genes, OC (%): ovarian cancer; for Target coverage for source genes, SCLC (%): small cell lung cancer; for Target coverage for source genes, UBC (%): urinary bladder cancer; for Target coverage for source genes, UTC (%): uterine cancer
[2] = Identification and label-free relative LC-MS quantitation of HLA-presented peptides on tumor and normal tissue samples (XPRESIDENT presentation profiles); details: for Entities of particular interest: entities where the peptide was over-presented on cancer samples compared to normal tissues; for Additional entities of particular interest (presentation of selected peptides across entities): tumor entities on which the HLA-presented peptide was found, entity abbreviations defined in the title of Table 4B
[3] = test system: source genes of the peptides (mRNA) in tumor and normal tissue; test: Expression profiling of source genes by Affymetrix microarrays (target coverage); details: over-expression = more than 1.5-fold higher expression on tumor vs. normal tissue with highest expression, gene with minimal coverage decisive; for Target coverage for source genes of selected peptides, BPHI/PCA (%): BPHI/PCA (prostate cancer) samples; for Target coverage for source genes of selected peptides, CRC (%): CRC tumor samples; for Target coverage for source genes of selected peptides, GB (%): GB tumor samples; for Target coverage for source genes of selected peptides, GC (%): GC tumor samples; for Target coverage for source genes of selected peptides, HCC (%): HCC tumor samples; for Target coverage for source genes of selected peptides, NSCLC (%): NSCLC tumor samples; for Target coverage for source genes of selected peptides, PC (%): PC tumor samples; for Target coverage for source genes of selected peptides, RCC (%): RCC tumor samples

Row | Substance | Entities of particular interest [2] | Additional entities of particular interest (presentation of selected peptides across entities) [2] | Target coverage for source genes of selected peptides, BPHI/PCA (%) [3] | Target coverage for source genes of selected peptides, CRC (%) [3] | Target coverage for source genes of selected peptides, GB (%) [3] | Target coverage for source genes of selected peptides, GC (%) [3] | Target coverage for source genes of selected peptides, HCC (%) [3] | Target coverage for source genes of selected peptides, NSCLC (%) [3] | Target coverage for source genes of selected peptides, PC (%) [3] | Target coverage for source genes of selected peptides, RCC (%) [3] | further results
1 | 8: peptide found in KIFC1 (gene looked up) (ALSSSQAEV; listed as Homo sapiens) [compound 8] | GB, NSCLC, OC, CRC, PC | BPH, OSCAR, SCLC, UBC, UTC, BRCA, GBC_CCC, MEL, AML, NHL | – | – | – | – | – | – | – | – | Target coverage for source genes, AML (%) [1]: I (<19% over-expression = I); Target coverage for source genes, BRCA (%) [1]: I (<19% over-expression = I); Target coverage for source genes, CLL (%) [1]: I (<19% over-expression = I); Target coverage for source genes, OSCAR (%) [1]: I (<19% over-expression = I); Target coverage for source genes, GBC_CCC (%) [1]: I (<19% over-expression = I); Target coverage for source genes, MEL (%) [1]: I (<19% over-expression = I); Target coverage for source genes, NHL (%) [1]: I (<19% over-expression = I); Target coverage for source genes, OC (%) [1]: I (<19% over-expression = I); Target coverage for source genes, SCLC (%) [1]: I (<19% over-expression = I); Target coverage for source genes, UBC (%) [1]: I (<19% over-expression = I); Target coverage for source genes, UTC (%) [1]: I (<19% over-expression = I)
2 | 18: peptide found in KIF18A (gene looked up) (KTASINQNV; listed as Homo sapiens) [compound 18] | NSCLC, CRC, PC, OSCAR, OC | SCLC, UBC, UTC, MEL | – | – | – | – | – | – | – | – | Target coverage for source genes, AML (%) [1]: I (<19% over-expression = I); Target coverage for source genes, BRCA (%) [1]: I (<19% over-expression = I); Target coverage for source genes, CLL (%) [1]: I (<19% over-expression = I); Target coverage for source genes, OSCAR (%) [1]: I (<19% over-expression = I); Target coverage for source genes, GBC_CCC (%) [1]: I (<19% over-expression = I); Target coverage for source genes, MEL (%) [1]: I (<19% over-expression = I); Target coverage for source genes, NHL (%) [1]: I (<19% over-expression = I); Target coverage for source genes, OC (%) [1]: I (<19% over-expression = I); Target coverage for source genes, SCLC (%) [1]: II (20-49% = II); Target coverage for source genes, UBC (%) [1]: I (<19% over-expression = I); Target coverage for source genes, UTC (%) [1]: I (<19% over-expression = I)
3 | 121: peptide found in TRIP13 (gene looked up) (ALYVQAPTV; listed as Homo sapiens) [compound 121] | – | NSCLC, UTC, NHL | I (<19% over-expression = I) | IV (>70% = IV) | IV (>70% = IV) | IV (>70% = IV) | II (20-49% = II) | IV (>70% = IV) | IV (>70% = IV) | II (20-49% = II) | –
4 | 122: peptide found in TRIP13 (gene looked up) (SIIDTELKV; listed as Homo sapiens) [compound 122] | – | AML | I (<19% over-expression = I) | IV (>70% = IV) | IV (>70% = IV) | IV (>70% = IV) | II (20-49% = II) | IV (>70% = IV) | IV (>70% = IV) | II (20-49% = II) | –
5 | 239: peptide found in KIF11 (gene looked up) (VIIKGLEEITV; listed as Homo sapiens) [compound 239] | GC, NSCLC, HCC, OC, MEL, CRC, PC | CLL, SCLC, UBC, UTC, AML, NHL | I (<19% over-expression = I) | II (20-49% = II) | I (<19% over-expression = I) | I (<19% over-expression = I) | I (<19% over-expression = I) | I (<19% over-expression = I) | I (<19% over-expression = I) | I (<19% over-expression = I) | –
6 | 240: peptide found in KIF11 (gene looked up) (SVQENIQQK; listed as Homo sapiens) [compound 240] | – | RCC, NHL | I (<19% over-expression = I) | II (20-49% = II) | I (<19% over-expression = I) | I (<19% over-expression = I) | I (<19% over-expression = I) | I (<19% over-expression = I) | I (<19% over-expression = I) | I (<19% over-expression = I) | –
7 | 247: peptide found in CDK1 (gene looked up) (NLLIDDKGTIKL; listed as Homo sapiens) [compound 247] | NSCLC, HCC, MEL, CRC, PC | – | I (<19% over-expression = I) | IV (>70% = IV) | IV (>70% = IV) | IV (>70% = IV) | II (20-49% = II) | IV (>70% = IV) | III (50-69% = III) | II (20-49% = II) | –
8 | 285: peptide found in NCAPG2 (gene looked up) (MLLDTVQKV; listed as Homo sapiens) [compound 285] | – | NSCLC | I (<19% over-expression = I) | II (20-49% = II) | I (<19% over-expression = I) | I (<19% over-expression = I) | I (<19% over-expression = I) | I (<19% over-expression = I) | I (<19% over-expression = I) | I (<19% over-expression = I) | –
9 | 287: peptide found in IGF2BP3 (gene looked up) (KIQEILTQV; listed as Homo sapiens) [compound 287] | GB, GC, NSCLC, HCC, CLL, OC, MEL, RCC, CRC, PC, OSCAR | – | I (<19% over-expression = I) | II (20-49% = II) | IV (>70% = IV) | II (20-49% = II) | III (50-69% = III) | IV (>70% = IV) | IV (>70% = IV) | II (20-49% = II) | –

Source: patent US20160279215A1, “NOVEL PEPTIDES AND COMBINATION OF PEPTIDES FOR USE IN IMMUNOTHERAPY AGAINST VARIOUS TUMORS” (immatics biotechnologies GmbH, priority 2015, published 2016)
